{"source": "paper PMC5651008", "about": "“The Copper Homeostasis Transcription Factor CopR Is Involved in H2O2 Stress in Lactobacillus plantarum CAUH2”", "target": "T1, CopR (CopRHis6) (Lactobacillus plantarum CAUH2) (UniProt F9UU50)", "T1 sequence (looked up, limits assumed)": "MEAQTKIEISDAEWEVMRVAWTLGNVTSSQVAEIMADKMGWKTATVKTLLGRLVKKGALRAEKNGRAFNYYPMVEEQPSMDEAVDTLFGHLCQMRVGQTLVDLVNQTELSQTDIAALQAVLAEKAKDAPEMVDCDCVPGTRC", "test": "EMSA", "settings": "5-50 uM Cu2+ series, binding weakens with increasing Cu2+ (third dose 25 uM in Methods, 20 uM in legend); 20 uL: 1x LightShift binding buffer, 50 ng/uL poly(dI-dC), 2.5% glycerol, 0.05% NP-40, 5 mM MgCl2, 20 fmol probe, 2.5 ug CopRHis6; salt and temperature not stated; recombinant protein; protein details: C-terminal His6; label: 3' biotin", "note": "For at least one entry, the source does not settle the construct or the ends of the probe. The comparison behind a weaker result is the experiment's own reference, which may not be listed here. Protein sequences can lack the tags named with them.", "data": [{"sequence": "GTGTTTTTCTTGACTTTTATCGTCTACAATTGTAAACTTTAGCCATAAATTACAGATGTAGACAAT (double strand) [copB promoter probe (EMSA copB-F/-R)]", "values": [{"measurement": "binding result", "value": "binds more weakly"}]}]}
